Assay results from patent publication US20230357323A1, “HUMAN IL23 RECEPTOR BINDING POLYPEPTIDES” (University of Washington, priority 2020, published 2023).
Results are given in words; binding and its absence hold for the method and conditions named. Some entries that bind do so weakly or less than the wild type. For part of these data: Tags and fused reporters may be left off the sequences shown.

The chains behind the UniProt entries cited, without tags or fusion partners. Residues count along the entry.
UniProt Q5VWK5, residues 24-355: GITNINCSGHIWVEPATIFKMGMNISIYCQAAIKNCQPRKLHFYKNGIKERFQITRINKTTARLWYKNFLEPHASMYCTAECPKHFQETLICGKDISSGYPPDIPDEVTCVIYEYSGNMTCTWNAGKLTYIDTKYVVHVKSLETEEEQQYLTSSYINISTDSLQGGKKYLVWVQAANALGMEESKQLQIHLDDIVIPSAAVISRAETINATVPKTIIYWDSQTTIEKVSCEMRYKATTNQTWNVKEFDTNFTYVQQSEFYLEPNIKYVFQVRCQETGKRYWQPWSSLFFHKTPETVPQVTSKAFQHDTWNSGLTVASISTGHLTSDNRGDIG

T1: mouse IL-23R-Fc fusion (R&D), chemically biotinylated (mouse) (UniProt Q8K4B4)
T1 sequence (chemically biotinylated via free amines (EZ-Link NHS-LC-Biotin), looked up): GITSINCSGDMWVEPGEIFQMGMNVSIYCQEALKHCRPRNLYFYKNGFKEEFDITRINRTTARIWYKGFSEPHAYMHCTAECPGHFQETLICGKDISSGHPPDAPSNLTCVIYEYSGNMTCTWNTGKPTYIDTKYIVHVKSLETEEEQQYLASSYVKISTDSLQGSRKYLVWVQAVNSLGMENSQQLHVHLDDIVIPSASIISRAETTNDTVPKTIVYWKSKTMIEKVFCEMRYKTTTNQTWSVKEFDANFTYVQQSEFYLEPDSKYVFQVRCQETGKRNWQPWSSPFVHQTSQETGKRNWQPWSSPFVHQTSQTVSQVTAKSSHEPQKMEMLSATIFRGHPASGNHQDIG

B1: 23R_mini_01 (designed binder)
chain: CERKEWMERLGHNWMWFYVMNTC
B2: 23R_mini_02 (designed binder)
chain: CEALEWFERVGKTWMWFYLLNTC
B3: 23R_mini_14_C1 (designed binder)
chain: CRVCMNNMCVDARECWMAYYLLNQYN
B4: 23R_mini_14_C2 (designed binder)
chain: CRVCKNNFCVDAQECWMAYYLLNQYT
B5: 23R_mini_14_C3 (designed binder)
chain: CRVCKNGFCVDAQECWMAYYLLNQYT
B6: 23R_mini_14_C4 (designed binder)
chain: CRVCKNGFCVDARECWMAYYLLNQYN
B7: 23R_mini_14_C5 (designed binder)
chain: CRVCKNKFCVDAVACWMAYYLLNQYT
B8: 23R_mini_14_C6 (designed binder)
chain: CRVCRNNMCVDARECWMAYYLLNQYT
B9: 23R_mini_14_C9 (designed binder)
chain: CRVCRNNFCVDARECWMAYYLLNQYN
B10: 23R_mini_14_C10 (designed binder)
chain: CRVCRNNFCVDAVECWMAYYLLNQYT
B11: 23R_mini_14_C11 (designed binder)
chain: CRVCMNGMCVDAQECWMAYYLLNQYN
B12: 23R_mini_14_C12 (designed binder)
chain: CRVCMNGMCVDARECWMAYYLLNQYN
B13: 23R_mini_14_C13 (designed binder)
chain: CRVCMNGMCVDARECWMAYYLLNQYT
B14: 23R_mini_14_C14 (designed binder)
chain: CRVCMNGMCVDAVECWMAYYLLNQYT
B15: 23R_mini_14_C17 (designed binder)
chain: CRVCMNGFCVDAVECWMAYYLLNQYT
B16: 23R_mini_14_C18 (designed binder)
chain: CRVCMNQMCVDAQECWMAYYLLNQYT
B17: 23R_mini_17_C1 (designed binder)
chain: CKVKCGGVEFEATERWMCYYWLWKYC
B18: 23R_mini_17_C2 (designed binder)
chain: CKVKCGGVEFEATERWMCFYWFNKYC
B19: 23R_mini_17_C3 (designed binder)
chain: CKVKCGGVEFEATERWMCFYWLWKYC
B20: 23R_mini_17_C4 (designed binder)
chain: CKVKCGSVEFEATERWMCYYWAWKYC
B21: 23R_mini_17_C9 (designed binder)
chain: CKVKCGPVEFEATERWMCYYWLWKYC
B22: 23R_mini_17_C10 (designed binder)
chain: CKVKCGPVEFEATERWMCFYWLWKYC
B23: 23R_mini_17_C11 (designed binder)
chain: CKVKCGPVEFEATERWMCFYWYNKYC
B24: 23R_mini_17_C12 (designed binder)
chain: CKLKCGGVEFEATERWMCYYWWNKYC
B25: mA01 (designed binder)
chain: MEPEKYVREQVKKYYEQKLSHQEAVEEVRKYARKKGLEAWKLTWYFMQLVKREI
B26: mA02 (designed binder)
chain: MEEEKYVRELVKKYYEQKLSHPEAVEEIRKYARKKGLEAWKLVWYFMQLVKRNI
B27: mA03 (designed binder)
chain: MEEEKYVRELVKKYYEGKLSHPEAVEEIRKYARKKGEEAWKLVWYFMQLVKRDI
B28: mB01 (designed binder)
chain: NLWQIFYMLVTIIKRTGDPTAKKLLKALQEAVKKYDEKAVKELAKKALKYIRS
B29: mB02 (designed binder)
chain: NLWQIFYLLSTIWKRTGDPTAKKLLKALQEAVKKNDEKATKELAKKALKYIRS
B30: mB03 (designed binder)
chain: NLWQIFYMLNTIIKRTGDPTAKKLLKALQEATKKWDEKATKELAKKATKYIRS
B31: mB04 (designed binder)
chain: NLWVIFYQLVTIWKRTGDPTAKKLLKALQEAVKKNDEKATKELAKKATKYIRS
B32: mB05 (designed binder)
chain: NLWQIFYMLVTIIKRTGDPTAKKLLKALQEANKKWDEKATKELAKKAMKYIRS
B33: mB06 (designed binder)
chain: NLWQIFYLLQTILKRTGDPTAKKLLKALAEAVKKWDEKAVKELAKKATKYIRS
B34: mB07 (designed binder)
chain: NLWQIFYLLSTIWKRTGDPTAKKLLKALNEALKKHDEKAVKELAKKALKYIRS
B35: mB08 (designed binder)
chain: NLWQIFYVLLTIIKRTGDPTAKKLLKALQEAVKKYDEKALKELAKKAMKYIRS
B36: mB09 (designed binder)
chain: NLWQIFYQLLTIIKRTGDPTAKKLLKALQEAVKKNDEKAVKELAKKATKYIRS
B37: mB10 (designed binder)
chain: NLWQIFYILVTIIKRTGDPTAKKLLKALQEAVKKYDEKATKELAKKALKYIRS
B38: mB11 (designed binder)
chain: NLWQIFYVLSTIIKRTGDPTAKKLLKALQEAVKKNDEKALKELAKKAMKYIRS
B39: mB12 (designed binder)
chain: NLWQIFYVLVTINKRTGDPTAKKLLKALQEAVKKGDEKAVKELAKKATKYIRS
B40: mB13 (designed binder)
chain: NLWQIFYVLVTIIKRTGDPTAKKLLKALQEAVKKGDEKATKELAKKALKYIRS
B41: mB14 (designed binder)
chain: NLWQIFYMLSTIIKRTGDPTAKKLLKALQEATKKWDEKATKELAKKATKYIRS
B42: mB15 (designed binder)
chain: NLWQIFYMLSTIIKRTGDPTAKKLMKALQEATKKWDEKATKELAKKAMKYIRS

Biological target: human IL-23R (hIL-23R), custom construct with C-terminal avi and his tags, biotinylated (human) (UniProt Q5VWK5)
Assay: yeast display FACS

Row | Binder | binding
1 | B1 | binds
2 | B2 | binds

Biological target: human IL-23R (hIL-23R), custom construct with C-terminal avi and his tags, biotinylated (human) (UniProt Q5VWK5)
Assay: yeast display FACS, SIF incubation then labeled hIL-23R

Row | Binder | binding
3 | B3 | binds
4 | B4 | binds
5 | B5 | binds
6 | B6 | binds
7 | B7 | binds
8 | B8 | binds
9 | B9 | binds
10 | B10 | binds
11 | B11 | binds
12 | B12 | binds
13 | B13 | binds
14 | B14 | binds
15 | B15 | binds
16 | B16 | binds
17 | B17 | binds
18 | B18 | binds
19 | B19 | binds
20 | B20 | binds
21 | B21 | binds
22 | B22 | binds
23 | B23 | binds
24 | B24 | binds

Biological target: T1, mouse IL-23R-Fc fusion (R&D), chemically biotinylated (mouse)
Assay: yeast display library screen against mouse IL-23R (m prefix)

Row | Binder | binding
25 | B25 | binds
26 | B26 | binds
27 | B27 | binds
28 | B28 | binds
29 | B29 | binds
30 | B30 | binds
31 | B31 | binds
32 | B32 | binds
33 | B33 | binds
34 | B34 | binds
35 | B35 | binds
36 | B36 | binds
37 | B37 | binds
38 | B38 | binds
39 | B39 | binds
40 | B40 | binds
41 | B41 | binds
42 | B42 | binds
